We go through 1 substance from article doi:10.1101/2025.06.12.659326.

Chains of the proteins cited; added tags and fusions are not shown.
UniProt Q9Y6G9: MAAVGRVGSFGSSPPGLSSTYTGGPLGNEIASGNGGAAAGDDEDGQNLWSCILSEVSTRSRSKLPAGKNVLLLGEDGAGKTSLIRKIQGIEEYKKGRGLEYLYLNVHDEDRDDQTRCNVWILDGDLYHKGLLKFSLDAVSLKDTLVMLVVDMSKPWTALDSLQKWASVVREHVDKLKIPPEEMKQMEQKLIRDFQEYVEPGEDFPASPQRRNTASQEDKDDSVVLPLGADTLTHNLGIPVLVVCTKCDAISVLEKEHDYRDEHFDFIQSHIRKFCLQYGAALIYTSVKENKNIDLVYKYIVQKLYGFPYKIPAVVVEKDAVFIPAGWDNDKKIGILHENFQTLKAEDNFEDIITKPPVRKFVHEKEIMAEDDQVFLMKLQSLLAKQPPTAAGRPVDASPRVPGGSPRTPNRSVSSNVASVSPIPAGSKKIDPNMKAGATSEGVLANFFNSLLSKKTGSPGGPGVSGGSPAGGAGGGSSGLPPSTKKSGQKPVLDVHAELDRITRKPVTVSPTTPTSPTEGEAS

No constants are given. Whether binding was seen depends on the method and setting. Binding seen in cells or lysates may run through a third protein. Some results given as binding are weak or reduced against the parent protein; the word gives no strength.

The assay deals with T1, occludin (OCLN), endogenous in U2OS cells (human (endogenous in U2OS)) (UniProt Q16625).
T1 sequence: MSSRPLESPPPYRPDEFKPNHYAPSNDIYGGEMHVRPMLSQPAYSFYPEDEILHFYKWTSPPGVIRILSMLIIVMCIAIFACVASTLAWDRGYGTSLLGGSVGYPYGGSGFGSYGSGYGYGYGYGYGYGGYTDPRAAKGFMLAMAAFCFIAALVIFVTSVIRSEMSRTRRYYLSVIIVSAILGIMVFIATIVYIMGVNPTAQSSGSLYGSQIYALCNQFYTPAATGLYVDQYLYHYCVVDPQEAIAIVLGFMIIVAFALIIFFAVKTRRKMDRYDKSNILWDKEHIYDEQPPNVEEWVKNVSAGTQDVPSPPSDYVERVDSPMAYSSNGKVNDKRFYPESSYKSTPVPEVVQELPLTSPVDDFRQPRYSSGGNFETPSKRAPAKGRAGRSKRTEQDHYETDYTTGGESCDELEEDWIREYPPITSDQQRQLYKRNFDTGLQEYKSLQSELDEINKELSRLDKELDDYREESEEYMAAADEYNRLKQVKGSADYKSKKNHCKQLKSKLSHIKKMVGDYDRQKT
Description: co-IP; endogenous proteins in U2OS cell lysate; IP with anti-dynein IC, anti-OCLN C-terminal or control IgG antibody and Protein G beads; Co-IP buffer 1% Nonidet P-40, 10% glycerol, 50mM Tris pH 7.5, 150mM NaCl, 2mM EDTA; immunoblot.

Consider “dynein light intermediate chain 1 (LIC1), endogenous in U2OS cells (from UniProt Q9Y6G9 1-523)”, for which the binding result was “binds”.
